# Test results published in PubChem BioAssay AID720504 (National Center for Advancing Translational Sciences (NCATS), 2013).
# Amino acid sequences for entries named in this document (tags omitted).
# UniProt P53350, whole entry, looked up: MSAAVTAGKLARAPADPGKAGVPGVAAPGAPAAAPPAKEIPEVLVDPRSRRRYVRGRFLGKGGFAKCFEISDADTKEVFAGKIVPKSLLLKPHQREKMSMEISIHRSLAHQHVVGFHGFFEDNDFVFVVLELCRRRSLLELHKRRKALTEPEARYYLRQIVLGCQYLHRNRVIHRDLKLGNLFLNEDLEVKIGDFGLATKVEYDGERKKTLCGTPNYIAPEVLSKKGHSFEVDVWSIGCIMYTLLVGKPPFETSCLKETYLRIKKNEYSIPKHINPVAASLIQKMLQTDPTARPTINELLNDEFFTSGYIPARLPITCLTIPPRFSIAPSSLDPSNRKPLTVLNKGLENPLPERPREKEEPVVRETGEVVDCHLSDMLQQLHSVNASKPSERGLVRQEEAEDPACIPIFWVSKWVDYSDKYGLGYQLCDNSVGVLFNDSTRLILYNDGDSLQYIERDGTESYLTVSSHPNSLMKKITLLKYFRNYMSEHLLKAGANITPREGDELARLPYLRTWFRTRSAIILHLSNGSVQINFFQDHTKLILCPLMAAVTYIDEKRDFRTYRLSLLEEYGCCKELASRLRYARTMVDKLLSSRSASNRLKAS
# The campaign covered roughly 360,000 compounds. About 10,000 (2.8%) were called active. The shares of active, inactive and inconclusive entries below differ from those in the screen. Calls come from the whole dose curve; as a rule, active = well fitted inhibition curve with a large enough effect; inconclusive = small, poorly fitted or top-dose-only effect; inactive = flat fitted curve, though single readings scatter. A potency beside an inconclusive call is a rough fit, not a confirmed value.
# Molecular target: Serine/threonine-protein kinase PLK1 (Homo sapiens) (UniProt P53350)
# Test: qHTS for Inhibitors of PLK1-PDB (polo-like kinase 1 - polo-box domain): Primary Screen; note: nearly all actives have a fitted effect of over 65% in size; for max response, negative = inhibition: series mostly up to about 57 µM
# Settings: Plk1 PBD binding of FITC phosphopeptide, fluorescence polarization
# % is set by controls: 0 for no effect and ±100 for the full control effect; potency is the fitted concentration of half-maximal effect.
Structure (SMILES),"max response, negative = inhibition",Potency
CC(CCc1ccccc1)NC(=O)CN1CCOc2ccccc21 (stereo not drawn),inactive: -5.08%,–
COc1ccc(CNC(=O)CCCc2ccccc2)cc1,inactive: -14.5%,–
COC(=O)C=CSC(=S)C1CCCC1=N (stereo not drawn),–,"inconclusive: 26.7 µM [inhibitor, partial curve]"
O=C(c1ccco1)N1CCN(C(=O)c2cc(-c3ccccn3)nc3ccccc23)CC1,inactive: -6.55%,–
COc1ccc(OC)c(CCNC(=O)CCc2nnc3ccc(N4CCCC4)nn23)c1,–,"inconclusive: 26.7 µM [inhibitor, partial curve]"
CC(C)(C)S(=O)N1Cc2cc(C(=O)NCC(F)(F)F)nc(-c3cccc(-c4cccc(F)c4)c3)c2[C@H]1CCO (stereo partly drawn),inactive: -2.64%,–
CN(C)[C@@H]1CCC[C@H]1OC(=O)C(c1ccccc1)c1ccccc1,–,"inconclusive: 26.7 µM [inhibitor, partial curve]"
COc1ccccc1/C=C1\SC(=S)N(C(C(=O)O)c2ccccc2)C1=O (stereo not drawn),–,active: 23.8 µM
CC(=O)n1c2c(c3ccccc31)OC(N)=C(C#N)C2c1cccc(Cl)c1Cl (stereo not drawn),–,"inconclusive: 8.44 µM [inhibitor, single point]"
COc1ccc(CCNC(=S)Nc2ccc(OC)cc2)cc1,–,active: 21.2 µM
CC(=O)N1c2c(cc(Br)cc2S(=O)(=O)NCC2COc3ccccc3O2)CC1C (stereo not drawn),–,"inconclusive: 2.67 µM [inhibitor, partial curve, poor fit]"
Cc1n[nH]c(=S)n(/N=C/c2cccc([N+](=O)[O-])c2)c1=O,inactive: -10.4%,–
Cn1cnc([N+](=O)[O-])c1S(=O)(=O)Oc1cccc2ccccc12,–,active: 8.44 µM
CCOC(=O)N/N=C\C=C\c1ccco1,inactive: -16.9%,–
COc1cccc(C2/C(=C(/O)c3ccc(F)cc3)C(=O)C(=O)N2CCN(C)C)c1 (stereo not drawn),inconclusive: -31.1% [inhibitor],–
Cc1sc2c(c1C)C(=O)NC(c1ccccc1F)N2 (stereo not drawn),–,active: 2.12 µM
COc1ccc(N2CC(C(=O)N/N=C/c3cccs3)CC2=O)cc1 (stereo not drawn),–,active: 23.8 µM
COC(=O)c1ccc(C(=O)OC)c(NC(=O)Cc2cccs2)c1,–,"inconclusive: 26.7 µM [inhibitor, single point]"
Cc1ccc(NC(=O)c2ccco2)nc1,inactive: -3.18%,–
COc1ccc(NS(=O)(=O)c2cc(NC(=O)/C=C/c3cccs3)ccc2N2CCOCC2)cc1,–,"inconclusive: 21.2 µM [inhibitor, single point]"
CN(C)CCNS(=O)(=O)c1ccc(Cl)cc1,–,"inconclusive: 26.7 µM [inhibitor, partial curve]"
COC(=O)CCC(=O)OC1(C)C(=O)C=C2C=C(C3CC3)N(c3ccccc3)C=C2C1=O (stereo not drawn),inconclusive: -32.6% [inhibitor],–
COc1cccc(OC)c1C(=O)NC(=S)NCc1ccccc1,–,"inconclusive: 21.2 µM [inhibitor, partial curve]"
Cc1ccc(NC(=S)N(N)CCO)cc1,–,"inconclusive: 23.8 µM [inhibitor, single point]"

Structure (SMILES),"max response, negative = inhibition",Potency
Cc1cccc(C)c1N1CCN(C(=O)N2CCOCC2)CC1,–,"inconclusive: 21.2 µM [inhibitor, single point]"
COc1cc(NC(=O)Cc2ccc(OC)c(S(=O)(=O)N3CCOCC3)c2)c(OC)cc1Cl,–,"inconclusive: 29.9 µM [inhibitor, partial curve]"
COc1cccc(N2[C@@H](CC(=O)O)c3cc(C(F)(F)F)ccc3S2(=O)=O)c1,–,"inconclusive: 23.8 µM [inhibitor, partial curve]"
CN1C(=S)SC(N(O)C(=O)Nc2cccc3ccccc23)C1(C)C (stereo not drawn),–,"inconclusive: 26.7 µM [inhibitor, single point]"
COc1ccccc1CC(=O)Nc1ccc(S(=O)(=O)N2CCOCC2)cc1,–,"inconclusive: 16.8 µM [inhibitor, partial curve]"
CCOc1cc(CNCc2ccccc2)ccc1OCC(=O)NC1CCCCC1,inactive: 1.53%,–
CS(=O)(=O)N(CCc1ccccc1)CC(=O)NCc1ccc(Cl)cc1,–,"inconclusive: 23.8 µM [inhibitor, single point]"
O=C(NC(=S)Nc1c(Cl)cc(Cl)cc1Cl)c1ccccc1,inactive: -2.75%,–
Cc1cc(C)n(CC(=O)N/N=C/c2cc(Br)cc([N+](=O)[O-])c2O)n1,inactive: -10.1%,–
CCOC(=O)/C(=C\c1ccc(Cl)cc1)c1nc2sc(C)c(C)c2c(=O)[nH]1,–,active: 7.52 µM
O=C(c1ccc(CS(=O)(=O)c2ccc(Br)cc2)o1)N1CCN(c2ccccn2)CC1,–,"inconclusive: 29.9 µM [inhibitor, partial curve]"
CC1CCCN(Cc2ccc(OCc3ccccc3)cc2)C1 (stereo not drawn),inactive: -14.1%,–
O=C(Nc1ccccc1F)C1CCCN1S(=O)(=O)c1ccc(Cl)cc1 (stereo not drawn),inactive: -12.4%,–
CCCN(C(=O)C1CC(=O)N(c2ccccc2C(C)CC)C1)C1CCS(=O)(=O)C1 (stereo not drawn),inactive: 1.83%,–
COc1ccc(-n2c(Cc3cccn3C)nnc2SCC(=O)Nc2ccccc2)cc1,inconclusive: -34% [inhibitor],–
O=[N+]([O-])c1cc(C(F)(F)F)ccc1N1CCCNCC1,inactive: 6.04%,–
CC1CCN(S(=O)(=O)c2ccc3c(c2)N(CC(=O)NCc2cccnc2)C(=O)CS3)CC1,–,active: 26.7 µM
Cc1nc(/C=[N+](\[O-])C(C)(C)/C=N/O)n(O)c1C,inactive: -0.757%,–
Cc1cc(C)nc(NNS(=O)(=O)c2c(F)cc(F)cc2Br)n1,–,"inconclusive: 29.9 µM [inhibitor, partial curve]"
O=C(COC(=O)c1cc(=O)[nH]c2ccccc12)Nc1ccc(F)cc1,inactive: -3.11%,–
CC(=O)N(CC1CCCO1)c1nnc(-c2ccccn2)s1 (stereo not drawn),inactive: -5.48%,–
COCCNCc1ccc(Cl)cc1Cl,–,"inconclusive: 8.44 µM [inhibitor, single point]"
Cc1nc2scc(-c3ccccc3)c2c(=O)n1N=C1C=CC(=O)C=C1,–,active: 3.36 µM
COc1ccc2[nH]c(C(=O)O)c(NS(=O)(=O)c3ccc(C)cc3C)c2c1,–,"inconclusive: 26.7 µM [inhibitor, single point]"

# A different layout for two compounds above:
Structure (SMILES)	max response, negative = inhibition	Potency
CC(CCc1ccccc1)NC(=O)CN1CCOc2ccccc21 (stereo not drawn)	inactive: -5.08%	–
COc1ccc(CNC(=O)CCCc2ccccc2)cc1	inactive: -14.5%	–
